Among the data in article PMC7318222, “A Family of Water‐Immiscible, Dipolar Aprotic, Diamide Solvents from Succinic Acid” (Chemsuschem, 2020) are Water misc. and Hexane misc. values, retold here.

The nature of data set [1]: Miscibility with water. Format: physicochemical. To be noted: this work.
A short description of data set [2]: Miscibility with hexane. Format: physicochemical. To be noted: this work.

Turning to `CC(=O)N(C)C` [DMAc, N,N‐dimethylacetamide], in data set [1], the Water misc. entry was “yes^[a]”. For the same compound, in data set [2], the Hexane misc. result was “no^[a]”.
